Data as given in US20150351401A1 (priority 2012, published 2015).
Some of these results come from one statement about several compounds together.

Legend:
[1] = test system: Botrytis cinerea; experiment: M1 Activity against the grey mold Botrytis cinerea in the microtiterplate test (Botrci); assay type: cell-based; conditions: 31 ppm; 405 nm, 7 days after inoculation; control variant = 100%
[2] = test system: Septoria tritici; experiment: M3 Activity against leaf blotch on wheat caused by Septoria tritici (Septtr), microtiter plate; assay type: cell-based; conditions: 31 ppm; 405 nm, 7 days after inoculation; control variant = 100%

| SMILES | growth (relative growth in % of the pathogen) [1] [%] | growth (relative growth in % of the pathogen) [2] [%] |
| --- | --- | --- |
| OC(Cc1ccc(Oc2ccc(Cl)cc2)cc1Cl)(Cn1cncn1)C1CC1 (stereo not shown) [I-7, 1-[2-Chloro-4-(4-chlorophenoxyl)phenyl]-2-cyclopropyl-3-(1,2,4-triazol-1-yl)propan-2-ol] | ≤ 9 | ≤ 16 |
| OC(Cc1ccc(Oc2ccc(Cl)cc2)cc1Cl)(Cn1cncn1)C1(Cl)CC1 (stereo not shown) [I-4] | ≤ 9 | ≤ 16 |
| OC(Cc1ccc(Oc2ccc(Cl)cc2)cc1Cl)(Cn1ncnc1S)C1(Cl)CC1 (stereo not shown) [I-5] |  | ≤ 16 |
| OC(Cc1ccc(-c2ccc(Cl)cc2)cc1Cl)(Cn1cncn1)C1(Cl)CC1 (stereo not shown) [I-3, 1-[2-chloro-4-(4-chlorophenyl)phenyl]-2-(1-chlorocyclopropyl)-3-(1,2,4-triazol-1-yl)propan-2-ol] | ≤ 9 | ≤ 16 |
